Values from PubChem BioAssay AID504791 (Drosophila RNAi Screening Center, 2011)
The screen tested about 23,000 reagents; shown is an unselected part of those that have a named target and a result. Of all reagents, 199 (0.86%) are marked active. 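Plate-scaled ratios behind the calls are not deposited; printed light signals are raw; many rows marked increased or decreased are still called inactive.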 Reagents against one gene are numbered here. A plus sign joins genes that one reagent is predicted to hit. Not given: the direction of the score.

- Assay: 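Factors in Argonaute-based small RNA production and activity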 (primary screen)
- Cell system: Drosophila S2-derived reporter cells
- Reagents: long dsRNA against Drosophila genes, about 150-250 ng dsRNA per well (siRNA assay); about 80-120 ng (miRNA assay)
- Time to read-out: about 5 days (siRNA assay); about 4 days (miRNA assay)
- Conditions: copper sulfate induction of reporters: 25 µM (siRNA assay); 200 mM stated (miRNA assay), 1-2 days before reading
- Detection: 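Dual luciferase assay: Renilla to firefly signal ratio in each well, scaled to the mean ratio of its plate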
- Rule for the call: 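a well was a first-pass pick when its plate-scaled ratio rose above 1.5 (siRNA assay) or 1.6 (miRNA assay), or dropped below 0.6; a gene counted only if two separate dsRNAs agreed on retest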

Target gene,reagent no.,stable siRNA reporter change,miRNA reporter change,"stable assay Renilla, run 1 (luminescence)","stable assay firefly, run 1 (luminescence)",Call
mbo (GeneID 41562),1,,,10345,3.91e5,inactive
CG15080 (GeneID 37167),1,,,5331,4.01e5,inactive
gcl (GeneID 35864),1,,,8662,5.40e5,inactive
Nup62 (GeneID 36830),1,,,9242,2.55e5,inactive
CG32767 (GeneID 31430),1,,,4667,2.17e5,inactive
CG4293 (GeneID 31001),1,,,7498,5.01e5,inactive
Mms19 (GeneID 40626),1,,,9408,5.93e5,inactive
Vha100-1 (GeneID 43442),1,,,8800,5.13e5,inactive
CG31805 (GeneID 318952),1,,,4795,3.17e5,inactive
Su(var)2-10 (GeneID 35927),1,reporter ratio lowered past the hit cutoff,,7138,9.18e5,inactive
Su(var)2-10 (GeneID 35927),2,,reporter ratio lowered past the hit cutoff,,,inactive
CG11475 (GeneID 37513),1,,,63908,3.55e5,inactive
Nsun5 (GeneID 7354421),1,,,11399,5.09e5,inactive
elgi (GeneID 39735),1,,,8951,3.10e5,inactive
Vti1b (GeneID 42215),1,,,8604,3.48e5,inactive
Vti1b (GeneID 42215),2,,,6747,3.07e5,inactive
IntS10 (GeneID 38444),1,,,11934,6.48e5,inactive
Gat (GeneID 43805),1,,,6214,3.72e5,inactive
CG31008 (GeneID 318554),1,,,6371,3.32e5,inactive
udd (GeneID 35781),1,,,7727,4.60e5,inactive
CG17048 (GeneID 36479),1,,,6255,3.76e5,inactive
CG4476 (GeneID 39056),1,,,7542,5.61e5,inactive
CG14100 (GeneID 40132),1,,,7370,3.59e5,inactive
Mur2B (GeneID 31111),1,,,7430,3.94e5,inactive
Mur2B (GeneID 31111),2,,,7044,3.32e5,inactive
CG13893 (GeneID 38074),1,,,6375,3.30e5,inactive
Dbp73D (GeneID 39871),1,,,11863,6.26e5,inactive
Cpsf6 (GeneID 38937),1,reporter ratio raised past the hit cutoff,reporter ratio raised past the hit cutoff,34261,6.14e5,active
Rh7 (GeneID 39389),1,,,8106,3.91e5,inactive
CG1677 (GeneID 31662),1,,,4440,3.61e5,inactive
PI31 (GeneID 36277),1,,,8124,3.97e5,inactive
CG32095 (GeneID 317849),1,,,2572,2.70e5,inactive
Mys45A (GeneID 35925),1,,,9408,3.66e5,inactive
Nplp2 (GeneID 50286),1,,,5356,2.90e5,inactive
CG3552 (GeneID 39097),1,,,5878,3.12e5,inactive
Cep89 (GeneID 36733),1,,,5931,3.97e5,inactive
Cals (GeneID 43824),1,,,6815,2.69e5,inactive
Cals (GeneID 43824),2,,,9259,4.68e5,inactive
CG9877 (GeneID 37666),1,,,6674,4.33e5,inactive
CG2663 (GeneID 40649),1,,,6379,5.09e5,inactive
CG11584 (GeneID 32363),1,,,5514,5.24e5,inactive
tst + CG10375,1,,,10762,4.16e5,inactive
Vps25 (GeneID 35847),1,,,7909,5.06e5,inactive
fsd (GeneID 36463),1,,,7076,3.83e5,inactive
Su(Tpl) (GeneID 40171),1,reporter ratio raised past the hit cutoff,,13180,1.90e5,active
Su(Tpl) (GeneID 40171),2,,reporter ratio raised past the hit cutoff,,,active
CG6163 (GeneID 39274),1,,,5748,3.85e5,inactive
Pstk + CG14210 + Tim9b,1,,,6011,5.46e5,inactive
CG13407 (GeneID 42599),1,,,8274,3.84e5,inactive
kermit (GeneID 46027),1,,,10102,5.92e5,inactive
Sr-CIII (GeneID 44382),1,,,8484,6.12e5,inactive
CG2533 (GeneID 32110),1,,,5211,4.72e5,inactive
CG6357 (GeneID 36532),1,,,8114,4.12e5,inactive
CG9676 (GeneID 32647),1,,,6070,5.10e5,inactive
P5cr (GeneID 42284),1,,,8354,3.91e5,inactive
CG46301 (GeneID 34829),1,,,5179,3.85e5,inactive
snsl (GeneID 33696),1,,,7535,3.65e5,inactive
CG7497 (GeneID 39966),1,,,9450,4.92e5,inactive
Aldh (GeneID 34256),1,,,6719,3.71e5,inactive
mle (GeneID 35523),1,,,5535,2.70e5,inactive
CG7214 (GeneID 34053),1,,,9298,3.52e5,inactive
CG7214 (GeneID 34053),2,,,8682,6.08e5,inactive
Muc55B (GeneID 37057),1,,,10365,5.79e5,inactive
cbc (GeneID 36494),1,,,9014,5.58e5,inactive
CG31386 (retired record) (GeneID 318706),1,,,3384,4.02e5,inactive
CG31386 (retired record) (GeneID 318706),2,,,3751,3.12e5,inactive
Cyp6a23 (GeneID 36661),1,,,6835,3.46e5,inactive
CG14684 (GeneID 41281),1,,,6610,3.53e5,inactive
CG8360 (GeneID 34122),1,,,3767,4.96e5,inactive
mei-S332 (GeneID 37523),1,,,6758,6.92e5,inactive
CG16995 (GeneID 33413),1,,,8289,4.65e5,inactive
beat-IIb (GeneID 42082),1,,,3456,3.71e5,inactive
beat-IIb (GeneID 42082),2,,,7832,4.70e5,inactive
beat-IIb (GeneID 42082),3,,,8622,6.21e5,inactive
CG5758 (GeneID 35083),1,,,4495,4.30e5,inactive
CG5758 (GeneID 35083),2,,,7366,3.40e5,inactive
nompB (GeneID 35414),1,,,6955,5.21e5,inactive
nompB (GeneID 35414),2,,,3472,3.88e5,inactive
Klp31E (GeneID 34422),1,,,9136,7.45e5,inactive
CG42266 (GeneID 7354431),1,,,11050,4.57e5,inactive
CG42266 (GeneID 7354431),2,,,9447,5.43e5,inactive
nis (GeneID 33337),1,,,15578,1.14e5,inactive
osy (GeneID 43186),1,,,6256,3.25e5,inactive
osy (GeneID 43186),2,,,7126,3.27e5,inactive
osy (GeneID 43186),3,,,7818,4.51e5,inactive

8 entries already listed, ordered by “stable assay Renilla, run 1 (luminescence)”, high to low.
Target gene,reagent no.,stable siRNA reporter change,miRNA reporter change,"stable assay Renilla, run 1 (luminescence)","stable assay firefly, run 1 (luminescence)",Call
kermit (GeneID 46027),1,,,10102,5.92e5,inactive
Sr-CIII (GeneID 44382),1,,,8484,6.12e5,inactive
P5cr (GeneID 42284),1,,,8354,3.91e5,inactive
CG6357 (GeneID 36532),1,,,8114,4.12e5,inactive
snsl (GeneID 33696),1,,,7535,3.65e5,inactive
CG9676 (GeneID 32647),1,,,6070,5.10e5,inactive
CG2533 (GeneID 32110),1,,,5211,4.72e5,inactive
CG46301 (GeneID 34829),1,,,5179,3.85e5,inactive
